US20110251239A1, “COMBINATION THERAPY FOR THE TREATMENT OF DEMENTIA” (EISAI INC., priority 2010, published 2011)
Counter-ions that a name gives are not always drawn.

How the values were obtained:
[1] = clinical; details: both, human, in vivo; for CL/F: Phase III database

COc1cc2c(cc1OC)C(=O)C(CC1CCN(Cc3ccccc3)CC1)C2 (racemic) [donepezil, (R,S)-1-benzyl-4-[(5,6-dimethoxy-1-indanon)-2-yl]-methylpiperidine hydrochloride]
dose normalized donepezil concentration in blood plasma with memantine vs without (FIG. 4) (10 mg donepezil immediate release once daily, memantine 10 mg immediate release twice daily, steady state): higher at all times of day at steady state
dose normalized donepezil concentration in blood plasma with memantine vs without (FIG. 3) (23 mg donepezil sustained release once daily, memantine 10 mg immediate release twice daily, steady state): higher at all times of day at steady state
Vc/F population mean (central compartment): 539 L
increase in the plasma concentration (exposure) of donepezil with memantine, equivalent increase in donepezil dose (donepezil in combination with memantine vs alone): approximately 20%
Vp/F population mean (peripheral compartment): 625 L
Ktr population mean (transit rate constant, IR formulation): 2.76 h⁻¹
KtrSR population mean (transit rate constant, SR formulation): 0.888 h⁻¹
bioavailability [1]: 91.2%
CL/F ([1]; CL/F2D6,EM population mean, CYP2D6 EM): 175 mL/min
CL/F ([1]; CL/F2D6,PM population mean, CYP2D6 PM): 119 mL/min
CL/F ([1]; CL/F2D6,URM population mean, CYP2D6 URM): 227 mL/min
